Experimental data taken from patent US20240277878A1.
Results are given in words; binding and its absence hold for the method and conditions named. Some entries that bind do so weakly or less than the wild type.

Sequences of proteins named here, by UniProt entry; tags and fusion partners are left off. A change or cut given only in a name is not applied to a line headed by its entry. Residues count along the entry.
UniProt Q9NZQ7, residues 19-290: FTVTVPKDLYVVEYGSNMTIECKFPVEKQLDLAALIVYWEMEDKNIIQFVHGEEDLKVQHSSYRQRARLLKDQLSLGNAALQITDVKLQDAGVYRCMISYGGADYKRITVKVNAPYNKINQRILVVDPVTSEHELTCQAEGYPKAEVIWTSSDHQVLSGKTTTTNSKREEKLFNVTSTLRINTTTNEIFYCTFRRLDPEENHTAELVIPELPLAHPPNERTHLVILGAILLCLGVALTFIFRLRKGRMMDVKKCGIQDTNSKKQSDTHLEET

Key:
[1] = target: human PD-L1 on transduced U-698-M B cell lymphoma cells (U698M-PDL1+) (human) (UniProt Q9NZQ7); experiment: static PET, PD-L1 positive versus wild-type U-698-M xenografts; blocked by 9 mg/kg unlabeled Adnectin
[2] = target: human PD-L1 on transduced U-698-M B cell lymphoma cells (U698M-PDL1+) (human) (UniProt Q9NZQ7); experiment: dynamic PET, PD-L1 positive versus wild-type U-698-M xenografts
[3] = target: human PD-L1 on transduced U-698-M B cell lymphoma cells (U698M-PDL1+) (human) (UniProt Q9NZQ7); experiment: static PET, PD-L1 positive versus wild-type U-698-M xenografts
[4] = target: human PD-L1 on transduced U-698-M B cell lymphoma cells (U698M-PDL1+) (human) (UniProt Q9NZQ7); experiment: radioligand binding on PD-L1 transduced U-698M cells
[5] = target: human PD-L1 on transduced U-698-M B cell lymphoma cells (U698M-PDL1+) (human) (UniProt Q9NZQ7); experiment: dynamic PET/CT, PD-L1 positive versus wild-type U-698-M xenografts
[6] = target: human PD-L1 on transduced U-698-M B cell lymphoma cells (U698M-PDL1+) (human) (UniProt Q9NZQ7); experiment: radioligand binding on PD-L1 transduced U-698M cells, wild-type cells as negative control
[7] = target: human PD-L1 on transduced U-698-M B cell lymphoma cells (U698M-PDL1+) (human) (UniProt Q9NZQ7); experiment: SPECT/CT, PD-L1 positive versus wild-type U-698-M xenografts

Measured: binding

B1: ^68Ga-DOTA-Adnectin (A02 anti-PD-L1 Adnectin with a C-terminal PC tail, DOTA-conjugated, ^68Ga-labeled) (designed binder)
chain: GVSDVPRDLEVVAATPTSLLISWSYDGPIDRYYRITYGETGGNSPVQEFTVPPDQKTATISGLKPGVDYTITVYAVRLEEAHYNREFPISINYRTPC
modifications: maleimido-mono-amide-DOTA on the C-terminal cysteine, chelating ^68Ga
not listed: [7]
binds: all other assays above

B2: ^177Lu-Adnectin (A02 adnectin with PC tail, DOTA-conjugated, ^177Lu-labeled) (designed binder)
chain: GVSDVPRDLEVVAATPTSLLISWSYDGPIDRYYRITYGETGGNSPVQEFTVPPDQKTATISGLKPGVDYTITVYAVRLEEAHYNREFPISINYRTPC
modifications: DOTA on the C-terminal cysteine, chelating ^177Lu
binds: [7]
